{"source": "patent US20050153395A1", "about": "“Unique integrin binding site in connective tissue growth factor (CTGF)” (CHILDREN'S HOSPITAL INC., priority 2003, published 2005)", "key": {"[1]": {"molecular_target": "integrin αvβ3 (purified, human) (human)", "experiment": "solid phase ELISA"}, "[2]": {"molecular_target": "integrin αvβ3 (purified, human) (human)", "experiment": "solid phase competition ELISA; αvβ3 pre-incubated with peptide; competitor coated CTGF4"}, "[3]": {"molecular_target": "integrin αvβ3 (purified, human) (human)", "experiment": "cell-free binding assay (Example 4)"}, "[4]": {"molecular_target": "integrin αvβ3 (purified, human) (human)", "experiment": "solid phase ELISA, coated ligand, purified αvβ3"}, "[5]": {"molecular_target": "integrin α5β1 (purified)", "experiment": "solid phase ELISA, coated ligand (2 µg/ml), purified α5β1"}, "[6]": {"molecular_target": "integrin αvβ3 (purified, human) (human)", "experiment": "co-immunoprecipitation with rabbit anti-CTGF, blot with anti-αvβ3"}, "[7]": {"molecular_target": "integrin α5β1 (purified)", "experiment": "co-immunoprecipitation with rabbit anti-CTGF, blot with anti-integrin α5β1"}, "[8]": {"molecular_target": "integrin α5β1 (purified)", "experiment": "PSC adhesion assays and solid phase ELISA"}, "[9]": {"molecular_target": "integrin α5β1 (purified)", "experiment": "solid phase competition ELISA"}, "[10]": {"molecular_target": "integrin α5β1 (purified)", "experiment": "solid phase competition ELISA, 35 µM peptide; competitor coated CTGF4 or fibronectin"}, "[11]": {"molecular_target": "integrin α5β1 (purified)", "experiment": "cell-free binding assay (Example 11)"}, "[12]": {"molecular_target": "integrin α5β1 (purified)", "experiment": "co-immunoprecipitation and solid phase ELISA"}, "[13]": {"molecular_target": "integrin α5β1 (purified)", "experiment": "solid phase ELISA, coated CTGF4 (2 µg/ml), α5β1 1 µg/ml"}, "[14]": {"molecular_target": "integrin α5β1 (purified)", "experiment": "solid phase ELISA, coated mutant (8 µg/ml), α5β1 1 µg/ml"}}, "note": "Results are given in words; binding and its absence hold for the method and conditions named. Binding can be weak; no strength is given. For part of these data: Binding seen in cells or lysates may run through a third protein.", "data": [{"binder": "IRTPKISKPIKFELSG", "note": "[CTGF[257-272] peptide …]", "values": [{"measurement": "binding", "setting": "[1]", "result": "binds"}, {"measurement": "binding", "setting": "[2]", "result": "binds"}, {"measurement": "binding", "setting": "[3]", "result": "binds"}]}, {"binder": "CTGF3-4 (16-20 kDa CTGF, modules 3 and 4) (ligand) AYRLEDTFGPDPTMIRANCLVQTTEWSACSKTCGMGISTRVTNDNASCRLEKQSRLCMVRPCEADLEENIKKGKKCIRTPKISKPIKFELSGCTSMKTYRAKFCGVCTDGRCCTPHRTTTLPVEFKCPDGEVMKKNMMFIKTCACHYNCPGDNDIFESLYYRKMYGDMA", "values": [{"measurement": "binding", "setting": "[4]", "result": "binds"}, {"measurement": "binding", "setting": "[5]", "result": "binds"}, {"measurement": "binding", "setting": "[6]", "result": "binds"}, {"measurement": "binding", "setting": "[7]", "result": "binds"}]}, {"binder": "GVCTDGR", "note": "[CTGF[285-291] peptide GVCTDGR]", "values": [{"measurement": "binding", "setting": "[8]", "result": "binds"}, {"measurement": "binding", "setting": "[9]", "result": "binds"}, {"measurement": "binding", "setting": "[10]", "result": "binds"}, {"measurement": "binding", "setting": "[11]", "result": "binds"}]}, {"binder": "CTGF4 (10 kDa CTGF, module 4 alone, residues 247-349 of SEQ ID NO: 1) (ligand) EENIKKGKKCIRTPKISKPIKFELSGCTSMKTYRAKFCGVCTDGRCCTPHRTTTLPVEFKCPDGEVMKKNMMFIKTCACHYNCPGDNDIFESLYYRKMYGDMA", "values": [{"measurement": "binding", "setting": "[12]", "result": "binds"}, {"measurement": "binding", "setting": "[4]", "result": "binds"}, {"measurement": "binding", "setting": "[5]", "result": "binds"}, {"measurement": "binding", "setting": "[6]", "result": "binds"}, {"measurement": "binding", "setting": "[7]", "result": "binds"}, {"measurement": "binding", "setting": "[13]", "result": "binds"}]}, {"binder": "CTGF4 mutant M1 (I257A, R258A, T259A, P260A) (ligand) EENIKKGKKCAAAAKISKPIKFELSGCTSMKTYRAKFCGVCTDGRCCTPHRTTTLPVEFKCPDGEVMKKNMMFIKTCACHYNCPGDNDIFESLYYRKMYGDMA", "values": [{"measurement": "binding", "setting": "[14]", "result": "binds"}]}, {"binder": "CTGF4 mutant M2 (K261A, I262A, S263A, K264A) (ligand) EENIKKGKKCIRTPAAAAPIKFELSGCTSMKTYRAKFCGVCTDGRCCTPHRTTTLPVEFKCPDGEVMKKNMMFIKTCACHYNCPGDNDIFESLYYRKMYGDMA", "values": [{"measurement": "binding", "setting": "[14]", "result": "binds"}]}, {"binder": "CTGF4 mutant M3 (P265A, I266A, K267A, F268A) (ligand) EENIKKGKKCIRTPKISKAAAAELSGCTSMKTYRAKFCGVCTDGRCCTPHRTTTLPVEFKCPDGEVMKKNMMFIKTCACHYNCPGDNDIFESLYYRKMYGDMA", "values": [{"measurement": "binding", "setting": "[14]", "result": "binds"}]}, {"binder": "CTGF4 mutant M4 (E269A, L270A, S271A, G272A) (ligand) EENIKKGKKCIRTPKISKPIKFAAAACTSMKTYRAKFCGVCTDGRCCTPHRTTTLPVEFKCPDGEVMKKNMMFIKTCACHYNCPGDNDIFESLYYRKMYGDMA", "values": [{"measurement": "binding", "setting": "[14]", "result": "binds"}]}]}
